These results are taken from PMC8550248.

Results are given in words; binding and its absence hold for the method and conditions named. Binding seen in cells or lysates may run through a third protein. A yes stands for co-enrichment or nearness to the bait. Other partners may have been found. No binding means not detected with the bait.

The target of this test is SFB-p53 (amino acids 100 to 355) (human) (UniProt P04637). Briefly: affinity purification with mass spectrometry; nuclear extract (BC100 buffer) of H1299 stably expressing SFB-p53 (100-355); Streptavidin beads, biotin elution, then S protein beads, glycine elution; LC-MS/MS.

B1: DiGeorge syndrome critical region 8 (DGCR8) (endogenous) (protein, UniProt Q8WYQ5 1-773)
chain: METDESPSPLPCGPAGEAVMESRARPFQALPREQSPPPPLQTSSGAEVMDVGSGGDGQSELPAEDPFNFYGASLLSKGSFSKGRLLIDPNCSGHSPRTARHAPAVRKFSPDLKLLKDVKISVSFTESCRSKDRKVLYTGAERDVRAECGLLLSPVSGDVHACPFGGSVGDGVGIGGESADKKDEENELDQEKRVEYAVLDELEDFTDNLELDEEGAGGFTAKAIVQRDRVDEEALNFPYEDDFDNDVDALLEEGLCAPKKRRTEEKYGGDSDHPSDGETSVQPMMTKIKTVLKSRGRPPTEPLPDGWIMTFHNSGVPVYLHRESRVVTWSRPYFLGTGSIRKHDPPLSSIPCLHYKKMKDNEEREQSSDLTPSGDVSPVKPLSRSAELEFPLDEPDSMGADPGPPDEKDPLGAEAAPGALGQVKAKVEVCKDESVDLEEFRSYLEKRFDFEQVTVKKFRTWAERRQFNREMKRKQAESERPILPANQKLITLSVQDAPTKKEFVINPNGKSEVCILHEYMQRVLKVRPVYNFFECENPSEPFGASVTIDGVTYGSGTASSKKLAKNKAARATLEILIPDFVKQTSEEKPKDSEELEYFNHISIEDSRVYELTSKAGLLSPYQILHECLKRNHGMGDTSIKFEVVPGKNQKSEYVMACGKHTVRGWCKNKRVGKQLASQKILQLLHPHVKNWGSLLRMYGRESSKMVKQETSDKSVIELQQYAKKNKPNLHILSKLQEEMKRLAEEREETRKKPKMSIVASAQPGGEPLCTVDV
B1: the binding result is reported as “no binding”.
